Results deposited as PubChem BioAssay AID1159584 (Peter MacCallum Cancer Centre, 2016).

Screen: 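Genes that CDH1-null MCF10A cells selectively depend on to survive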 (primary screen)
Cells: human MCF10A breast epithelial cells, parental and CDH1-null
Reagents: siRNA against human genes
Detection: 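Cell viability by CellTiter-Glo ATP luminescence, each line scaled to the mean of mock wells across plates, then CDH1-null over parental ratio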
Reading the numbers: CDH1-null / parental viability ratio: higher = CDH1-null cells survive relatively better than parental; CDH1-null viability vs mock: higher = more viable CDH1-null cells
Here is an unselected part of about 18,000 deposited reagents. Further read-outs or replicates are left out here. No sequences are given here. Not given: the amount of reagent, the time to read-out.

TFEC [SID152156323] → CDH1-null / parental viability ratio = 0.92; CDH1-null viability vs mock (fraction of mock) = 0.92
NAGA [SID135622052] → CDH1-null / parental viability ratio = 1.29; CDH1-null viability vs mock (fraction of mock) = 0.75
ABHD1 [SID134317808] → CDH1-null / parental viability ratio = 1.1; CDH1-null viability vs mock (fraction of mock) = 0.8
TRAF7 [SID134312209] → CDH1-null / parental viability ratio = 0.93; CDH1-null viability vs mock (fraction of mock) = 0.77
INCENP [SID152156360] → CDH1-null / parental viability ratio = 1.39; CDH1-null viability vs mock (fraction of mock) = 0.64
SUMO4 [SID135625127] → CDH1-null / parental viability ratio = 0.79; CDH1-null viability vs mock (fraction of mock) = 0.52
FMO2 [SID135621511] → CDH1-null / parental viability ratio = 0.98; CDH1-null viability vs mock (fraction of mock) = 0.82
MIB1 [SID152150394] → CDH1-null / parental viability ratio = 1.25; CDH1-null viability vs mock (fraction of mock) = 0.75
NMI [SID134310311] → CDH1-null / parental viability ratio = 0.97; CDH1-null viability vs mock (fraction of mock) = 0.96
ARAP2 [SID134314062] → CDH1-null / parental viability ratio = 0.92; CDH1-null viability vs mock (fraction of mock) = 0.96
GLMN [SID152146914] → CDH1-null / parental viability ratio = 1.39; CDH1-null viability vs mock (fraction of mock) = 0.97
RUNX1T1 [SID134316141] → CDH1-null / parental viability ratio = 0.9; CDH1-null viability vs mock (fraction of mock) = 0.8
RAVER1 [SID152153271] → CDH1-null / parental viability ratio = 0.95; CDH1-null viability vs mock (fraction of mock) = 0.7
ANXA8L1 [SID152154117] → CDH1-null / parental viability ratio = 1.1; CDH1-null viability vs mock (fraction of mock) = 0.64
NPHS1 [SID134313505] → CDH1-null / parental viability ratio = 1.06; CDH1-null viability vs mock (fraction of mock) = 0.83
FAM163B [SID135625456] → CDH1-null / parental viability ratio = 0.87; CDH1-null viability vs mock (fraction of mock) = 0.89
TNFSF18 [SID152153911] → CDH1-null / parental viability ratio = 1.18; CDH1-null viability vs mock (fraction of mock) = 0.78
MDGA2 [SID134323193] → CDH1-null / parental viability ratio = 0.73; CDH1-null viability vs mock (fraction of mock) = 0.62
TSLP [SID135622584] → CDH1-null / parental viability ratio = 0.83; CDH1-null viability vs mock (fraction of mock) = 0.57
JADE1 [SID152152610] → CDH1-null / parental viability ratio = 1; CDH1-null viability vs mock (fraction of mock) = 0.96
PRSS38 [SID134311397] → CDH1-null / parental viability ratio = 1.39; CDH1-null viability vs mock (fraction of mock) = 0.57
NHSL3 [SID152153692] → CDH1-null / parental viability ratio = 1.27; CDH1-null viability vs mock (fraction of mock) = 0.76
IGLL3P [SID135624460] → CDH1-null / parental viability ratio = 1.48; CDH1-null viability vs mock (fraction of mock) = 0.86
LRAT [SID134314847] → CDH1-null / parental viability ratio = 1; CDH1-null viability vs mock (fraction of mock) = 0.72
PRAMEF12 [SID152153431] → CDH1-null / parental viability ratio = 0.97; CDH1-null viability vs mock (fraction of mock) = 0.65
PAIP1 [SID134322990] → CDH1-null / parental viability ratio = 0.9; CDH1-null viability vs mock (fraction of mock) = 0.92
OR51D1 [SID135624874] → CDH1-null / parental viability ratio = 1.53; CDH1-null viability vs mock (fraction of mock) = 1.12
TLX3 [SID135622675] → CDH1-null / parental viability ratio = 1.27; CDH1-null viability vs mock (fraction of mock) = 0.57
MORN3 [SID152147125] → CDH1-null / parental viability ratio = 0.81; CDH1-null viability vs mock (fraction of mock) = 0.7
FADS3 [SID134313354] → CDH1-null / parental viability ratio = 0.67; CDH1-null viability vs mock (fraction of mock) = 0.64
LARS1 [SID152149826] → CDH1-null / parental viability ratio = 1; CDH1-null viability vs mock (fraction of mock) = 0.77
PCF11 [SID152149006] → CDH1-null / parental viability ratio = 1.18; CDH1-null viability vs mock (fraction of mock) = 0.26
SELENBP1 [SID152156392] → CDH1-null / parental viability ratio = 1.37; CDH1-null viability vs mock (fraction of mock) = 0.82
NOL10 [SID135622756] → CDH1-null / parental viability ratio = 1.06; CDH1-null viability vs mock (fraction of mock) = 0.66
ITGA7 [SID135621486] → CDH1-null / parental viability ratio = 0.86; CDH1-null viability vs mock (fraction of mock) = 0.85

4 consecutive entries already listed:
PRSS38 [SID134311397] → CDH1-null / parental viability ratio = 1.39; CDH1-null viability vs mock (fraction of mock) = 0.57
NHSL3 [SID152153692] → CDH1-null / parental viability ratio = 1.27; CDH1-null viability vs mock (fraction of mock) = 0.76
IGLL3P [SID135624460] → CDH1-null / parental viability ratio = 1.48; CDH1-null viability vs mock (fraction of mock) = 0.86
LRAT [SID134314847] → CDH1-null / parental viability ratio = 1; CDH1-null viability vs mock (fraction of mock) = 0.72
